Assay [1] deals with T1, ectopically overexpressed CP2c (UniProt Q12800).
T1 sequence: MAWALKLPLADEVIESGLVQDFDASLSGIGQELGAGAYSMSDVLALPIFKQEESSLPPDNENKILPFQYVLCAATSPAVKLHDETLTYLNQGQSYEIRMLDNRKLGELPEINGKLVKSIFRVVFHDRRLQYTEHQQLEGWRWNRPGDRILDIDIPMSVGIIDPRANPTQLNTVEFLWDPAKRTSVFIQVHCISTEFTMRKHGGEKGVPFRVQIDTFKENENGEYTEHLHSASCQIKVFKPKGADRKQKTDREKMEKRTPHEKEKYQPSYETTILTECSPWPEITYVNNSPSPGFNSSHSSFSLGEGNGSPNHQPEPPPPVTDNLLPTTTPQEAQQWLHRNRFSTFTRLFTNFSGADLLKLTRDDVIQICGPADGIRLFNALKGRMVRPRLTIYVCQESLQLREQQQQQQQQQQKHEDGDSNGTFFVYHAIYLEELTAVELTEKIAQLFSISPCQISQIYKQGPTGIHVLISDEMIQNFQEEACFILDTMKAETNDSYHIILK
Nature of the assay: co-IP; ectopically overexpressed CP2c and TDP2 in 293T cells; lysis buffer 50 mM Tris‐HCl pH 7.4, 150 mM NaCl, 1 mM EDTA, 0.1% triton X‐100.

Assay [2] has as its target T2, endogenous CP2c (human (endogenous in MDA‐MB‐231)) (UniProt Q12800).
T2 sequence: T1 sequence
The assay can be described thus: co-IP; endogenous proteins of MDA‐MB‐231 cells, with or without ACP52C treatment; lysis buffer 50 mM Tris‐HCl pH 7.4, 150 mM NaCl, 1 mM EDTA, 0.1% triton X‐100.

Assay [3] deals with CP2c (source not told: Figures S10, S15A,B and S16J) (UniProt Q12800). The assay can be described thus: co-IP + pull-down; in vitro IP and pulldown assays with Pep #5 or Pep #5‐2 added, with or without probe DNA.
The target of assay [4] is T2, endogenous CP2c (human (endogenous in MDA‐MB‐231)). The assay can be described thus: cross-linking; live cells cross-linked with 2 mM DSP in PBS, 3 h on ice; nuclear and cytosolic fractions; Western blot for CP2c (DSP XL-WB); with or without Pep #5‐2C. For orientation: In western blotting, separated proteins are transferred to a membrane and probed.

No constants are given. Whether binding was seen depends on the method and setting. In cells and extracts the contact can be indirect. Some binding calls cover weakened binding; strength is not graded here.

B1: ectopically overexpressed TDP2 (protein, UniProt O95551 1-362)
chain: MELGSCLEGGREAAEEEGEPEVKKRRLLCVEFASVASCDAAVAQCFLAENDWEMERALNSYFEPPVEESALERRPETISEPKTYVDLTNEETTDSTTSKISPSEDTQQENGSMFSLITWNIDGLDLNNLSERARGVCSYLALYSPDVIFLQEVIPPYYSYLKKRSSNYEIITGHEEGYFTAIMLKKSRVKLKSQEIIPFPSTKMMRNLLCVHVNVSGNELCLMTSHLESTRGHAAERMNQLKMVLKKMQEAPESATVIFAGDTNLRDREVTRCGGLPNNIVDVWEFLGKPKHCQYTWDTQMNSNLGITAACKLRFDRIFFRAAAEEGHIIPRSLDLLGLEKLDCGRFPSDHWGLLCNLDIIL
B1: in assay [1], the binding entry was “binds”.

B2: endogenous TDP2 (protein, UniProt O95551 1-362)
chain: B1 chain
Consider B2, for which the binding result in assay [2] was “binds”.

B3: CP2c (source not told: Figures S10, S15A,B and S16J) (protein, UniProt Q12800 1-502)
chain: T1 sequence
Consider B3, for which the binding result in assay [3] is listed as “binds”.

B4: endogenous CP2c (protein, UniProt Q12800 1-502)
chain: T1 sequence
With B4, the binding result in assay [4] was “binds”.

For the origin of these results see publication PMC10667816, “A Cell‐Penetrant Peptide Disrupting the Transcription Factor CP2c Complexes Induces Cancer‐Specific Synthetic Lethality” (Advanced Science, 2023).
